This passage reports AC50 results from PubChem BioAssay AID493014 (National Center for Advancing Translational Sciences (NCATS), 2011).

The other results are listed elsewhere or left out. Shown are side measurements of this screen, not its main read-out; they come without a call. Most of these compounds were active or inconclusive in the main read-out, so they are no random draw. Words in brackets tell the shape of the fitted curve; partial curves, single points and poor fits give uncertain potencies.

This experiment is described as follows: qHTS Assay to Find Inhibitors of Chronic Active B-Cell Receptor Signaling. Particulars: ABC-DLBCL IkBa-CBG/CBR reporter, luminescence ratio (green luciferase fused to IkBa over red control in TMD8 lymphoma cells), 4 h. The method, boiled down: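 Doxycycline induced both beetle luciferases in TMD8 lymphoma cells; IKK-driven degradation limits the IkappaBalpha-fused green signal, while red luminescence normalises for cell number and nonspecific effects. Compounds tested up to 46 uM, 4 hrs.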
(In general: Quantitative high-throughput screening tests each substance at several concentrations.)

The mark [1] stands for this setting: measured here: CBR red luminescence, cell number.
[2] abbreviates: measured here: IkBa-CBG green luminescence.

Usually AC50 stands for the concentration at which the activity in the assay is half-maximal. Turning to `Cc1cc(C)n(CC(=O)n2nc(C)cc2C)n1`, the AC50 under setting [1] is 0.259 µM [rising, full curve, poor fit].

In the case of `CCOC(=O)CSc1cc(-c2ccccc2)nc2ncnn12`, the AC50 under setting [1] is 7.94 µM [falling, partial curve, poor fit].

On to `COc1cccc(C(=O)Nc2ncc3c(n2)CC(C)CC3=O)c1` (stereo not drawn), for which the AC50 under setting [1] is 2.91 µM [falling, full curve].

On to `Cc1ccc(NNC(=O)c2cc(C)on2)c(C)c1`, for which the AC50 under setting [1] is 35.5 µM [rising, single point].

Turning to `COc1ccc(C(=O)N2CCN(c3cccc(C)c3C)CC2)cc1S(=O)(=O)NC1CC1`, the half-maximal activity concentration (AC50) under setting [1] is 25.9 µM [falling, partial curve, poor fit].

In the case of `O=C(Nc1cccc(NC(=O)c2ccccc2)n1)c1ccccc1`, the AC50 under setting [1] is 1.41 µM [rising, full curve, poor fit].

With `COc1cccc(/C=N/NC(=O)c2ccc3nc[nH]c3c2)c1`, the AC50 under setting [1] is 11.2 µM [falling, single point].

Consider `Cn1c(SCC(=O)NC(c2ccccc2)c2ccccc2)nnc1-c1cccs1`, for which the concentration at half-maximal activity (AC50) under setting [1] is 23.1 µM [falling, single point].

Consider `Cc1ccccc1NC(=O)c1c(-c2ccccc2)noc1C`, for which, under setting [1], the AC50 was 29.1 µM [rising, single point].

As to `CNc1ccc(Br)cc(C(=O)/C=C/c2cccc(OC)c2OC)c1=O`, the AC50 under setting [1] was 3.26 µM [falling, full curve, poor fit].

For `O=C(Nc1ccccc1)N1CCn2c1nc1ccccc12`, the concentration at half-maximal activity (AC50) under setting [1] was 0.206 µM [falling, full curve, poor fit].

Turning to `O=C(O)c1ccc(Cl)cc1Nc1nc2cc(Cl)ccc2o1`, the AC50 under setting [1] was 3.16 µM [rising, single point].

For `Cc1ccc2oc(=O)c3cnn(CC(=O)N(Cc4ccco4)C4CCCCC4)c3c2c1`, the AC50 under setting [1] was 2.59 µM [falling, partial curve, poor fit].

With `O=C(c1ccc(Cl)c(Cl)c1)N1CCC(=O)N(C(COCc2ccc(Cl)cc2)Cc2ccccc2)CC1` (stereo not drawn), the half-maximal activity concentration (AC50) under setting [1] is 23.1 µM [falling, single point].

Turning to `CC(=O)N1N=C(c2cccs2)CC1c1ccc(Br)cc1` (stereo not drawn), the AC50 under setting [1] is 6.31 µM [rising, single point].

On to `O=C(COc1ccc2ccccc2c1)N1CCCC1`, for which, under setting [1], the AC50 was 29.1 µM [falling, single point].

With `C=CCOC(=O)c1ccc(-n2cnc(C)n2)nc1`, the concentration at half-maximal activity (AC50) under setting [1] is 10 µM [rising, partial curve, poor fit].

`O=C1c2ccccc2C(Nc2ccccc2)N1c1ccc(Cl)cn1` (stereo not drawn): the AC50 under setting [1] is 25.9 µM [rising, partial curve, poor fit].

Consider `C[C@H](NC(=O)c1ccccc1Cl)C(=O)OCCOc1cccc(Cl)c1`, for which the concentration at half-maximal activity (AC50) under setting [1] is 14.1 µM [rising, single point].

In the case of `O=C(NC1CCCCC1)c1cc(-n2cnnc2)ccc1Cl`, under setting [1], the AC50 is 35.5 µM [rising, single point].

On to `CC(=O)Nc1ccc(NC(=O)COC(=O)Cc2c[nH]c3ccccc23)cc1`, for which the AC50 under setting [1] was 6.51 µM [rising, single point].

Take `O=C(COc1ccc(-n2cnnn2)cc1)Nc1ccc(F)c(Cl)c1`: under setting [1], the AC50 was 1.84 µM [rising, partial curve, poor fit].

Turning to `S=c1[nH]nc(Cc2ccc(Cl)cc2)o1`, under setting [1], the AC50 is 12.6 µM [rising, partial curve].

Take `COc1ccc(-c2cn3ccc(C)cc3n2)cc1`: under setting [1], the AC50 was 8.91 µM [falling, partial curve, poor fit].

`CC(=O)Nc1ccc(C(=O)OCc2ccc(Br)cc2)cc1`: the AC50 under setting [1] was 4.11 µM [rising, full curve].

For the compound `CCOC(=O)c1ccc(NC(=O)Cn2ncc(Cl)c(Cl)c2=O)cc1`, the concentration at half-maximal activity (AC50) by setting is: under setting [1], 7.31 µM [falling, partial curve]; under setting [2], 32.6 µM [rising, partial curve, poor fit].

With `CCNC(=S)NNC(=O)c1cc(-c2ccc(OC)cc2)nc2ccccc12`, the AC50 under setting [1] was 9.2 µM [falling, partial curve].

Take `Cc1ccc(-n2cc(C(=O)c3cc(Cl)ccc3O)cc(C#N)c2=O)cc1`: the half-maximal activity concentration (AC50) under setting [1] is 14.6 µM [falling, partial curve, poor fit].

Regarding `CCOc1cccc(C(=O)Nc2cc(C)ccc2NC(=O)c2ccco2)c1`, under setting [1], the half-maximal activity concentration (AC50) is 11.2 µM [falling, partial curve].

Turning to `CCC(=O)Nc1cc(=O)[nH]c2nc(-c3ccc(Cl)cc3)nn12`, the concentration at half-maximal activity (AC50) under setting [1] is 0.316 µM [rising, full curve, poor fit].

For `CN(c1ccccc1)S(=O)(=O)c1cccc(NC(=O)CSc2ncc(C(F)(F)F)cc2Cl)c1`, the AC50 under setting [1] is 25.9 µM [falling, partial curve].

As for `COc1ccc(/C=N/NC(=O)c2ccc(NC(=O)c3cccc([N+](=O)[O-])c3)cc2)c(C(=O)O)c1OC`, the AC50 under setting [1] is 11.2 µM [falling, partial curve, poor fit].

Consider `COc1ccc(CCN2C(=O)/C(=C\c3ccco3)SC2=S)cc1OC`, for which the AC50 runs as follows: under setting [1], 35.5 µM [falling, single point]; under setting [2], 35.5 µM [falling, single point].

`CCOC(=O)c1ccc(NC(=S)N(CCN2CCCCCC2)Cc2ccco2)cc1`: the AC50 under setting [1] is 1 µM [falling, full curve, poor fit].

As to `COc1ccccc1N(C(=O)c1snc(C(N)=O)c1N)C(C(=O)NC1CCCC1)c1ccco1` (stereo not drawn), the concentration at half-maximal activity (AC50) under setting [1] was 10 µM [falling, partial curve].

In the case of `CSc1nc(N)nc(SCCS(=O)(=O)c2ccc(Cl)cc2)c1C#N`, the AC50 is 8.2 µM [falling, partial curve, poor fit] under setting [1] and 23.1 µM [rising, single point] under setting [2].

For the compound `N=c1c(S(=O)(=O)c2ccc(Cl)cc2)cc2c(=O)n3ccccc3nc2n1C1CCCCC1`, under setting [1], the concentration at half-maximal activity (AC50) is 11.2 µM [falling, partial curve, poor fit].

Turning to `O=C(CNC(=O)c1ccccc1)Nc1ccsc1C(=O)O`, under setting [1], the AC50 was 20 µM [falling, single point].

For `COc1cc(/C=C/C(=O)OCC(=O)NCc2ccco2)cc(OC)c1OC`, the AC50 under setting [1] is 29.1 µM [rising, single point].

For the compound `CCn1nccc1C(=O)Nc1nccs1`, the AC50 under setting [1] is 2.59 µM [falling, partial curve, poor fit].

On to `CCCCNC(=S)N/N=C/c1cccc(OCC)c1O`, for which, under setting [1], the AC50 is 0.355 µM [falling, full curve, poor fit].

Take `CCOC(=O)N1CCC(NC(=O)C2CCCN(Cc3nc(-c4cccc(C)c4)oc3C)C2)CC1` (stereo not drawn): under setting [1], the AC50 is 2.82 µM [rising, single point].

Consider `Clc1ccc(Cc2noc(-c3cccs3)n2)cc1`, for which, under setting [1], the AC50 was 20 µM [rising, partial curve, poor fit].

Regarding `CN(C)/C=C1\C(=O)ON=C1c1ccccc1`, under setting [1], the half-maximal activity concentration (AC50) was 12.6 µM [falling, single point].

Consider `Cc1nc(NCCc2ccc(F)cc2)c(C#N)c(C)c1[N+](=O)[O-]`, for which the half-maximal activity concentration (AC50) under setting [1] is 20.6 µM [falling, partial curve, poor fit].

As to `C/C(=N\NC(=O)c1ccc(C)cc1)C1C(=O)c2ccccc2C1=O`, the AC50 under setting [1] is 10.3 µM [falling, partial curve].

As to `COc1cc(/C=N/NC(=O)CNc2n[nH]c(=O)[nH]c2=O)ccc1OCc1ccccc1`, the AC50 under setting [1] was 20 µM [rising, partial curve, poor fit].

`CCCN1Cc2cccc(C(=O)N3CCN(c4cc(Cl)ccc4C)CC3)c2C1=O`: under setting [1], the concentration at half-maximal activity (AC50) is 1.84 µM [falling, partial curve, poor fit].

`O=C(CN1C2CCC1CC(NC(=O)Nc1ccccc1)C2)NCc1ccco1` (stereo not drawn): the AC50 under setting [1] is 5.62 µM [rising, partial curve].

On to `C/C(=N\Nc1nncc2ccccc12)c1ccc(O)cc1`, for which the AC50 under setting [1] is 15.8 µM [falling, partial curve, poor fit].

`CCC(NC(=S)NCc1ccc(F)cc1)c1ccc(C)cc1` (stereo not drawn): the concentration at half-maximal activity (AC50) under setting [1] is 10 µM [falling, partial curve].

On to `COc1ccc(N2CC(NC(=O)C3CCCC3)CC2=O)cc1OC` (stereo not drawn), for which the AC50 under setting [1] is 14.1 µM [falling, single point].

On to `Cc1occc1-c1nnc(SCC(=O)Nc2nccs2)n1Cc1ccco1`, for which the AC50 under setting [1] was 35.5 µM [falling, single point].

As to `O=C(COc1ccc2ccccc2c1)NCCn1ccc2ccccc21`, the AC50 under setting [1] was 7.31 µM [rising, single point].

For `Fc1ccc2nc(Nc3nc4cc5c(cc4s3)OCCO5)sc2c1`, the AC50 under setting [1] is 0.731 µM [rising, full curve, poor fit].

With `COC(=O)c1ccccc1NC(=O)NCc1ccccc1`, under setting [1], the AC50 is 8.91 µM [falling, partial curve, poor fit].

Turning to `CC1CCN(c2nc(-c3ccccc3O)nc3ccccc23)CC1`, the AC50 under setting [1] was 0.447 µM [falling, full curve, poor fit].

Regarding `CCOc1ccccc1C1N=C(c2ccc(OC)cc2)CC(c2ccccc2O)N1` (stereo not drawn), the AC50 under setting [1] is 2.82 µM [falling, full curve, poor fit].

As to `Cc1ccc(/C=N/NC(=O)c2cc(C)oc2C)o1`, the AC50 under setting [1] was 16.4 µM [falling, single point].

Take `Cc1nnc(NC(=O)CC(NC(=O)C(F)(F)F)c2ccccc2)s1` (stereo not drawn): the AC50 under setting [1] is 1.84 µM [falling, partial curve, poor fit].

As for `O=C(Cc1cnn(-c2ccccc2)c1)c1ccc(O)c(O)c1O`, the AC50 under setting [1] is 3.66 µM [rising, single point].

On to `O=C(C[n+]1ccc(/C=N/O)cc1)NC(=O)Nc1ccccc1`, for which, under setting [1], the AC50 was 2.31 µM [rising, full curve, poor fit].

On to `COC(=O)c1sccc1NN1C(=O)c2ccccc2C1=O`, for which the AC50 under setting [1] was 35.5 µM [falling, partial curve, poor fit].

On to `CCOC(=O)c1ccc(NC(=O)Cn2nnc3ccccc32)cc1`, for which the AC50 under setting [1] was 5.62 µM [rising, single point].

Regarding `COc1ccc(C(=O)NCCCNC(=O)c2ccccn2)cc1Br`, under setting [1], the AC50 was 35.5 µM [rising, single point].
